As a reminder, the AC50 is the concentration giving half of the maximal activity seen.

The experiment can be described thus: qHTS Assay to Find Inhibitors of Chronic Active B-Cell Receptor Signaling. The conditions noted are these: ABC-DLBCL IkBa-CBG/CBR reporter, luminescence ratio (green luciferase fused to IkBa over red control in TMD8 lymphoma cells), 4 h. In a few lines: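 TMD8 human ABC-DLBCL cells with doxycycline-inducible IκBα–green luciferase fusion and unfused red luciferase, in 0.5% FBS medium; compounds up to 46 uM, 4 h at 37C. Green/red luminescence ratio, filter-overlap corrected, fitted to concentration-response curves.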

Setting [1] is: measured here: CBR red luminescence, cell number.
Where [2] appears, read: measured here: IkBa-CBG green luminescence.

Values joined by “and” are separate entries in the source; they are usually repeats but may differ in a detail not shown here. Equal entries are not always repeated. The list shows a part of the results. Shown are side measurements of this screen, not its main read-out; they come without a call. Compounds called inactive in the main read-out are mostly missing here. Potencies come from curve fits of mixed quality, noted in brackets.

As to `COC(=O)CNC(=O)COC(=O)/C=C/c1ccc2ccccc2n1`, under setting [1], the AC50 was 20 µM [falling, single point].
Take `CN1CCN(C(=O)/C(=C/c2ccc(F)cc2)NC(=O)c2ccccc2)CC1`: the AC50 under setting [1] was 0.1 µM [rising, full curve, poor fit].
The same measure, in the same setting: to `O=C(O)c1ccccc1CSc1nnnn1-c1ccccc1` belongs 35.5 µM [falling, single point]; to `CN(CC(=O)Nc1ccccc1Cl)C(=O)COC(=O)c1nc(Cl)c(Cl)c(Cl)c1Cl`, 7.94 µM [falling, partial curve, poor fit].
Still for that read-out and setting: to `C/C(=N\NS(C)(=O)=O)c1ccccc1` belongs 7.31 µM [falling, partial curve, poor fit]; to `Cc1cc(C)cc(N(CC(=O)NCc2ccc(F)cc2)C(=O)c2snc(C(N)=O)c2N)c1`, 15.8 µM [rising, partial curve, poor fit]; to `O=C1[C@H](Oc2ccccc2)[C@@H](c2ccccc2)N1c1ccncc1`, 18.4 µM [falling, partial curve, poor fit].
In the case of `Cc1ccc(-c2nc(NCCCO)c3ccccc3n2)cc1`, the AC50 under setting [2] is 12.6 µM [rising, partial curve, poor fit].
`CCOc1ccccc1NC(=O)CSc1nc(=O)n(Cc2ccncc2)c2c1CCC2`: the AC50 under setting [1] was 6.51 µM [falling, partial curve].
On to `COc1ccc(C(=O)Nc2ccc(NC(=O)c3ccccc3)cc2)cc1S(=O)(=O)N1CCOCC1`, for which the AC50 under setting [1] was 17.8 µM [rising, partial curve, poor fit].
Still for that read-out and setting: next, `Cc1occc1-c1nnc(SCC(=O)c2c(N)n(Cc3ccccc3)c(=O)n(C)c2=O)n1C`: 12.6 µM [rising, single point].
Still for that read-out and setting: next, `CCOC(=O)Cc1csc(NC(=O)COc2ccc3c(c2)CCC3)n1`: 35.5 µM [falling, single point]; `O=C(CCCc1c[nH]c2ccccc12)Nc1ncccc1O`: 1.26 µM [falling, full curve, poor fit]; `Cc1cc2nc(-c3cccc(NC(=O)c4ccc(Br)o4)c3C)oc2cc1C`: 2.51 µM [falling, full curve].
Consider `CCc1cc(C(c2ccncc2)N2CCN(C)CC2)c(NC(=O)c2ccccc2)s1` (centres undefined), for which, under setting [1], the AC50 was 25.9 µM [falling, single point].
For the molecule `Cc1csc2c(N3CCN(C(=S)Nc4ccc(C(F)(F)F)cc4)CC3)ncnc12`, the half-maximal activity concentration (AC50) under setting [1] is 20 µM [falling, partial curve, poor fit].
On the same count and under the same terms, next, `CC(C)OCCCNc1nc(-c2ccccc2)nc2ccccc12`: 35.5 µM [falling, single point]; `COc1cc(S(=O)(=O)NCc2cccnc2)c(OC)cc1Br`: 6.31 µM [falling, single point].
As to `O=C(NCC1CCCO1)c1ccc(COc2ccccc2)o1` (centres undefined), the AC50 under setting [1] is 23.1 µM [rising, single point].
Same read-out and setting: to `COc1ccc(-c2cc(C(=O)N3CCOCC3)no2)cc1` belongs 8.91 µM [falling, partial curve]; to `Cc1ccc(C(=O)O/N=C(\N)c2ccccn2)cc1C`, 0.794 µM [falling, full curve]; to `Nc1cccc(C(=O)NCCNC(=O)c2cccc(N)c2)c1`, 5.01 µM [rising, partial curve, poor fit].
Same read-out and setting: next, `COc1ccc(-c2[nH]c(-c3cccc(OC)c3)nc2SCC(=O)NCc2ccco2)cc1`: 20.6 µM [falling, single point].
On to `COC(=O)c1ccc(NC(=O)c2cccc(NC(=O)c3ccco3)c2)cc1`, for which the AC50 under setting [1] is 11.2 µM [falling, single point].
As to `Cc1ccc(S(=O)(=O)N2CCCCC2CCNC(=O)C(=O)NCc2ccccc2C)cc1` (centres undefined), under setting [1], the AC50 is 5.8 µM [falling, partial curve].
Same read-out and setting: to `c1ccc(Nc2c(-c3ccco3)nc3ccccn23)cc1` belongs 7.31 µM [falling, partial curve, poor fit]; to `Cn1ccnc1SCC(=O)Nc1nc2ccccc2s1`, 12.6 µM [falling, partial curve].
On the same count and under the same terms, to `Cc1ccccc1C(=O)N1CCN(c2ccc(NC(=O)Cc3ccccc3)cc2)CC1` belongs 7.94 µM [falling, partial curve, poor fit].
Still for that read-out and setting: next, `Cc1[nH]c2ccccc2c1C(=O)COC(=O)c1ccc([N+](=O)[O-])s1`: 2.24 µM [rising, partial curve, poor fit]; `CCOc1cc(/C=C2/NC(=O)N(CC(=O)OC)C2=O)ccc1O`: 1.12 µM [falling, full curve].
As to `CCC1(C)Cc2c(sc3nnn(CC(=O)Nc4ccccc4)c(=O)c23)CO1` (centres undefined), under setting [1], the AC50 is 6.31 µM [rising, single point].
Still for that read-out and setting: next, `N#Cc1ncc(-c2ccc3c(c2)OCCOCCOCCOCCOCCO3)nc1C#N`: 5.8 µM [falling, full curve].
As for `CCOc1ccc(CNC(=O)c2cnc(SC)nc2CC)cc1`, under setting [1], the AC50 was 11.2 µM [rising, partial curve, poor fit].
The same measure, in the same setting: next, `COc1cc2c(ccc3cc(OC)c(OC)c(O)c32)cc1O`: 35.5 µM [falling, single point].
Take `COC(=O)/C(=C\Nc1ccc(Cl)c2ccccc12)c1ncc(C(F)(F)F)cc1Cl`: under setting [1], the AC50 is 5.8 µM [rising, single point].
Same read-out and setting: to `CCOC(=O)CSc1[nH]c2cc(OC)ccc2c1[N+](=O)[O-]` belongs 0.316 µM [falling, full curve, poor fit].
`CCN1C(=O)C(O)(C2COC(C)(C)CC2=O)c2cc(Br)ccc21` (centres undefined): the AC50 runs as follows: under setting [1], 8.2 µM [rising, partial curve, poor fit]; under setting [2], 6.51 µM [falling, partial curve].
For the molecule `Cc1ccccc1-c1ccc(C=Nc2c(C)n(C)n(-c3ccccc3)c2=O)o1`, the AC50 under setting [1] is 35.5 µM [rising, single point].
Regarding `COC(=O)c1ccc(NC(=S)NNC(=O)c2ccccc2)cc1`, the AC50 under setting [1] is 14.1 µM [falling, partial curve].
For the molecule `CNC(=S)N/N=C(\C)c1ccc(C(C)(C)C)cc1`, the AC50 under setting [2] was 18.4 µM [falling, partial curve, poor fit].
Turning to `C/C=C(/C)C(=O)OC1CC(C)(C)C[C@H]2C3=CC[C@@H]4[C@@]5(C)CCC(O[C@@H]6O[C@@H](C(=O)O)[C@@H](O)C(O[C@@H]7OC[C@H](O)[C@@H](O)[C@@H]7O[C@@H]7OC(CO)C(O)[C@@H](O)[C@@H]7O)C6O[C@@H]6OC(CO)C(O)C(O)C6O)[C@@](C)(CO)[C@@H]5CC[C@]4(C)[C@]3(C)CC(O)[C@@]12CO` (some centres undefined), the AC50 under setting [1] is 29.1 µM [rising, partial curve].
On to `Cc1ccc(CN=C2NC(=O)C(CC(=O)NCCc3ccccc3)S2)cc1` (centres undefined), for which the AC50 under setting [1] was 35.5 µM [rising, single point].
For the molecule `CC(=O)Nc1ccc(C(=O)OCc2ccccc2Cl)cc1`, the AC50 under setting [1] is 2.91 µM [rising, partial curve].
Still for that read-out and setting: to `O=C(O)Cn1c2c(c3ccccc31)CSc1ccc(Cl)cc1-2` belongs 3.55 µM [falling, partial curve, poor fit]; to `Cn1c(SCc2ccccc2)nnc1-c1ccncc1`, 5.62 µM [rising, single point].
Still for that read-out and setting: next, `CN(C)CCOc1ccc2ccccc2c1`: 2.06 µM [rising, partial curve]; `COc1ccc(C(=O)CSc2nnc(-c3ccccn3)n2Cc2ccco2)cc1`: 35.5 µM [rising, single point]; `COc1ccccc1/C=C/C(=O)NC(=S)NC(C)C`: 29.1 µM [falling, single point].
Still for that read-out and setting: next, `CCOC(=O)c1c(CC(C)C)csc1NC=O`: 8.91 µM [rising, partial curve]; `O=C(NC(=S)Nc1ccccc1N1CCOCC1)c1cccs1`: 2.91 µM [falling, partial curve]; `Cn1cc(C(=O)c2ccccc2)cc1-c1nc2ccccc2n1C`: 8.2 µM [falling, partial curve, poor fit].
With `Cn1nc(C(=O)Nc2ccccc2)c2c1-c1ccccc1S(=O)(=O)C2`, under setting [1], the AC50 is 8.91 µM [rising, partial curve].
Still for that read-out and setting: next, `CCCCOc1ccc(-c2nc(-c3cccnc3)no2)cc1`: 3.26 µM [falling, partial curve, poor fit]; `COc1ccc(CC(=O)Nc2nc(-c3ccc(F)c(F)c3)cs2)cc1OC`: 11.2 µM [falling, partial curve, poor fit]; `Oc1cccc(Nc2nc(-c3ccccc3)nc3ccccc23)c1`: 10 µM [falling, partial curve].
Consider `CCOC(=O)c1cc(S(=O)(=O)NC2CCC(C)CC2)cn1C` (centres undefined), for which the AC50 under setting [1] is 35.5 µM [falling, partial curve, poor fit].
On the same count and under the same terms, next, `O=C(O)Cc1csc(-c2ccc(F)cc2)n1`: 11.2 µM [rising, partial curve, poor fit].
Still for that read-out and setting: to `O=C(O)c1cc(N/N=C/c2ccc(N3CCOCC3)s2)ccc1Cl` belongs 10.3 µM [falling, partial curve]; to `COc1cc(/C=C/c2nnc3c4ccccc4ncn23)cc(OC)c1OC`, 29.1 µM [falling, single point]; to `Cc1ccc(NC(=O)c2noc3c2CCc2ccccc2-3)cc1`, 1.03 µM [falling, full curve].
Regarding `CCCn1cnc2cc(NCc3cccc(OC)c3O)ccc21`, the AC50 under setting [1] is 11.2 µM [rising, partial curve, poor fit].
Still for that read-out and setting: to `COc1ccc(C2NC(C(=O)O)Cc3c2[nH]c2ccccc32)cc1CN1CCN(c2ccc(F)cc2)CC1` (centres undefined) belongs 35.5 µM [falling, partial curve, poor fit].
Still for that read-out and setting: next, `O=C(O)c1cccc(-c2noc(-c3cccc(Cl)c3)n2)c1`: 461 nM [falling, full curve] and 1.16 µM [falling, full curve].

For the origin of these results see PubChem BioAssay AID493014 (National Center for Advancing Translational Sciences (NCATS), 2011).
